Data published in US20250257364A1, “RNA-GUIDED DNA TRANSPOSITION” (priority 2024, published 2025).
Some results were stated once for a whole list of compounds, not compound by compound.

Tested on: E. coli genome
Assay: Tn-seq of CRISPRt transposon insertion sites (specificity, orientation)
Type: cell-based, E. coli K-12
Conditions: Tn6677 transposon junction sequencing
Text: FIGS. 1a-e illustrate a mobilizable, selectable, dual-plasmid system for CRISPR-guided transposition. 1a. Schematic of a targeted transposition gene knockout (CRISPRt) and gene overexpression (CRISPRtOE) system optimized for functional genomics. 1b. Schematic of mechanism of Vibrio cholera Type I-F CRISPR-associated transposon (Vc CAST) system. 1c. Schematic of strain construction using the CRISPRt targeted transposition system. Plasmids have pir-dependent origins of replication preventing replication in the bacterial recipient. […] Inside the recipient cell, the transposon (flanked in yellow) is inserted onto the chromosome at a site determined by the sequence of the guide RNA. […] Specificity of CRISPRt disruption of gfp and lacZ in E. coli measured by Tnseq. Mapping of location of transposon insertion sites to the E. coli genome after CRISPRt targeted transposition with gfp1 guide (226,671 reads) or LZ1 guide (216,801 reads). […]
Tnseq analysis of CRISPRt/CRISPRtOE constructs. […] PCR products were spin-purified (eluted in 15 μl) and quantified fluorometrically. […] Briefly, PCR products were amplified with nested primers containing i5 and i7 indexes and Illumina® TruSeq™ adapters followed by bead cleanup, quantification, pooling and running on a NovaSeq X Plus (150 bp paired end reads) or MiSeq (250 bp paired end reads). […]

Substance: lacZ: gRNA spacer LZ1 (Petassi, PMID: 33271061), SEQ ID NO: 16, targeting lacZ (guide CAACTTAATCGCCTTGCAGCACATCCCCCTTT; chemistry not given here)
- on target efficacy (Tn-seq): > 99.5%
